The list does not hold the whole screen: it is rich in T/C values a quarter to a half above the control, in often repeated tests (any T/C) and in doses without a T/C. Other doses and runs of a compound stand elsewhere. T/C gives the treated animals as a percentage of the vehicle group. Some doses have a count of surviving animals in place of a T/C: the source files T/C as zero there, which appears to mark a toxic dose or a test without result, not a measured value. Some doses without a T/C left all or most animals alive at the check, yet need not have been tolerated: the source hardly ever lists a survival T/C far under the control, and the zero likely stands for such cases as well. Counts of survivors are from the toxicity check (mostly the fifth day) where no day follows; animals may have died later. Schedules are NCI's codes, taken here to give the interval after Q, in days (D) or hours (H), and the number of doses after X. Some doses were run more than once; the results are listed from low to high. Some schedules carry Z or #; the key to these is not given. Some structures stand for samples that the source files as different forms (salt, stereo form or complex); doses refer to the form tested. Where survival is the endpoint, this PubChem deposit counts one and a half times the control or more as active, and values a quarter to a half above the control carry no call in these data; other NCI protocols may use other cut-offs.
Test system: L1210 leukemia ip in BDF1 mice, survival T/C
Assay: NCI In Vivo Anticancer Drug Screen. Data for tumor model L1210 Leukemia (intraperitoneal) in B6D2F1 (BDF1) mice
Conditions: T/C endpoint: mean survival time, higher T/C = longer survival
[1] = dose: 200.0 mg/kg/injection, schedule: Q04DX003 (ip), vehicle: saline with Tween-80
[2] = dose: 400.0 mg/kg/injection, schedule: Q04DX003 (ip), vehicle: saline with Tween-80
[3] = dose: 400.0 mg/kg/injection, schedule: Q01DX009 (ip), vehicle: Klucel (hydroxypropylcellulose) (HPC)
[4] = dose: 200.0 mg/kg/injection, schedule: Q01DX009 (ip), vehicle: Klucel (hydroxypropylcellulose) (HPC)
[5] = dose: 100.0 mg/kg/injection, schedule: Q04DX003 (ip), vehicle: saline with Tween-80
[6] = dose: 400.0 mg/kg/injection, schedule: Q04DX002 (ip), vehicle: saline with Tween-80
[7] = dose: 400.0 mg/kg/injection, schedule: Q01DX001 (ip), vehicle: Klucel (hydroxypropylcellulose) (HPC)
[8] = dose: 400.0 mg/kg/injection, schedule: Q04DX003 (ip), vehicle: saline
[9] = dose: 300.0 mg/kg/injection, schedule: Q01DX001 (ip), vehicle: saline
[10] = dose: 200.0 mg/kg/injection, schedule: Q04DX003 (ip), vehicle: saline
[11] = dose: 200.0 mg/kg/injection, schedule: Q04DX003 (ip), vehicle: Klucel (hydroxypropylcellulose) (HPC)
[12] = dose: 400.0 mg/kg/injection, schedule: Q04DX003 (ip), vehicle: Klucel (hydroxypropylcellulose) (HPC)
[13] = dose: 400.0 mg/kg/injection, schedule: Q01DX001 (ip), vehicle: saline
[14] = dose: 200.0 mg/kg/injection, schedule: Q01DX009 (ip), vehicle: other
[15] = dose: 400.0 mg/kg/injection, schedule: Q01DX009 (ip), vehicle: other

CC(=O)OC(CC(O)(C(F)(F)F)C(F)(F)F)C(C)(C)C (stereo not drawn)
survivor count (dose: 100.0 mg/kg/injection, schedule: Q01DX009 (ip), vehicle: saline): 3 of 6 | survivor count [1]: 6 of 6 | survivor count [2]: 6 of 6

OCCCNc1nc2c(Cl)cc(Cl)cc2c2ccccc12
survivor count [3]: 2 of 6

O=C/C=C/c1ccc([N+](=O)[O-])cc1
survivor count (dose: 50.0 mg/kg/injection, schedule: Q01DX009 (ip), vehicle: saline with Tween-80): 5 of 6 | survivor count (dose: 200.0 mg/kg/injection, schedule: Q01DX009 (ip), vehicle: saline with Tween-80): 3 of 6

c1ccc(N/N=C(/C[n+]2cc3ccccc3c3ccccc32)c2ccccc2)cc1
survivor count [4]: 4 of 6 | survivor count [3]: 0 of 6

CC(=O)OC1C=CCC2C(=O)C3=C(C(=O)c4ccccc4C3=O)C(=O)C12 (stereo not drawn)
survivor count [5]: 6 of 6 | survivor count [1]: 6 of 6 | survivor count [2]: 6 of 6

CC(C)(C)NP(=O)(NC(C)(C)C)c1ccc([N+](=O)[O-])cc1
survivor count (dose: 200.0 mg/kg/injection, schedule: Q04DX003 (ip), vehicle: acetone): 6 of 6

O=C1OCC/C1=C/OS(=O)(=O)C(F)(F)F
survivor count (dose: 200.0 mg/kg/injection, schedule: Q01DX009 (ip), vehicle: water): 2 of 6

CC(C)=CCOc1ccc2c(c1)OCO2
survivor count [6]: 1 of 3

CCc1cccc(CC)c1N1C(=O)C=CC1=O
survivor count (dose: 12.5 mg/kg/injection, schedule: Q04DX002 (ip), vehicle: other): 3 of 3 | survivor count (dose: 25.0 mg/kg/injection, schedule: Q04DX002 (ip), vehicle: other): 1 of 3 | survivor count (dose: 50.0 mg/kg/injection, schedule: Q04DX002 (ip), vehicle: other): 0 of 3 | survivor count (dose: 100.0 mg/kg/injection, schedule: Q04DX002 (ip), vehicle: other): 0 of 3 | survivor count (dose: 200.0 mg/kg/injection, schedule: Q04DX002 (ip), vehicle: other): 0 of 3 | survivor count (dose: 400.0 mg/kg/injection, schedule: Q04DX002 (ip), vehicle: other): 0 of 3

CCC[CH2][Sn]1([CH2]CCC)[S]CCOB(OCC[S][Sn]([CH2]CCC)([CH2]CCC)[S]CCOB2OCC[S][Sn]([CH2]CCC)([CH2]CCC)[S]CCO2)OCC[S]1
survivor count (dose: 100.0 mg/kg/injection, schedule: Q01DX001 (ip), vehicle: Klucel (hydroxypropylcellulose) (HPC)): 1 of 6 | survivor count (dose: 200.0 mg/kg/injection, schedule: Q01DX001 (ip), vehicle: Klucel (hydroxypropylcellulose) (HPC)): 0 of 6 | survivor count [7]: 0 of 6

COc1ccc2c3c(c4cc(OC)c(OC)cc4c2c1)C[C@H]1CCCCN1C3
T/C (dose: 1.0 mg/kg/injection, schedule: Q01DX Z (ip), vehicle: other): 140 % of control | survivor count (dose: 1.5 mg/kg/injection, schedule: Q01DX Z (ip), vehicle: saline): 5 of 6 | survivor count (dose: 2.0 mg/kg/injection, schedule: Q01DX Z (ip), vehicle: carboxymethylcellulose (CMC)): 0 of 6 | survivor count (dose: 4.0 mg/kg/injection, schedule: Q01DX Z (ip), vehicle: carboxymethylcellulose (CMC)): 0 of 6 | survivor count (dose: 8.0 mg/kg/injection, schedule: Q01DX001 (ip), vehicle: saline): 1 of 4

CCC(=O)NC(N)=S
survivor count (dose: 100.0 mg/kg/injection, schedule: Q01DX009 (ip), vehicle: Klucel (hydroxypropylcellulose) (HPC)): 0 of 6

C=CCn1cnc(=N)c2[nH]cnc21
survivor count [8]: 0 of 6

CN1C2C=C(c3ccccc3)C(Br)C1CC2 (stereo not drawn)
survivor count (dose: 80.0 mg/kg/injection, schedule: Q04DX003 (ip), vehicle: saline with Tween-80): 6 of 6 | survivor count [9]: 0 of 6

Cc1cc(Cl)c2ccccc2[n+]1C
survivor count [10]: 0 of 6 | survivor count [8]: 0 of 6

Cc1cccc(NCC(=O)NN)c1C
survivor count (dose: 100.0 mg/kg/injection, schedule: Q04DX002 (ip), vehicle: Klucel (hydroxypropylcellulose) (HPC)): 2 of 3 | survivor count (dose: 200.0 mg/kg/injection, schedule: Q01DX009 (ip), vehicle: carboxymethylcellulose (CMC)): 1 of 3

CS(=O)(=O)N1C=CC=CC=C1
survivor count (dose: 100.0 mg/kg/injection, schedule: Q04DX003 (ip), vehicle: Klucel (hydroxypropylcellulose) (HPC)): 2 of 6 | survivor count [11]: 2 of 6 | survivor count [12]: 0 of 6

Cc1c(CCO)sc[n+]1Cc1ccccc1[N+](=O)[O-]
survivor count (dose: 200.0 mg/kg/injection, schedule: Q01DX001 (ip), vehicle: saline): 0 of 6 | survivor count [13]: 0 of 6

CCOC(=O)C1C(=O)NC(=O)CC1C (stereo not drawn)
T/C (dose: 100.0 mg/kg/injection, schedule: Q01DX009 (ip), vehicle: saline with Tween-80): 137 % of control

OCCN1CCC2(CC1)SSC1(CCN(CCO)CC1)S2
survivor count [2]: 2 of 6

O=C(O)/C(=C/c1ccccc1)c1ccccc1
survivor count [6]: 0 of 3 and 2 of 3

Cc1nc(N)nc(N)c1CCCCc1ccc(N)cc1
survivor count [7]: 0 of 3

CC1CCC(C(C)C)C(NCCO)C1 (stereo not drawn)
survivor count (dose: 150.0 mg/kg/injection, schedule: Q01DX001 (ip), vehicle: saline): 1 of 6 | survivor count [9]: 0 of 6

CCOC(=O)CNCc1ccc(Cl)c(Cl)c1
survivor count (dose: 400.0 mg/kg/injection, schedule: Q04DX003 (ip), vehicle: water): 2 of 6

CCC1=[N+](C)C(C)(C)CC(C)O1 (stereo not drawn)
survivor count [5]: 3 of 6 | survivor count [1]: 1 of 6 | survivor count [2]: 0 of 6

C=CCNCC=C
survivor count [13]: 0 of 4

CC(C)C(N)(CCN1CCOCC1)c1cccc2ccccc12 (stereo not drawn)
survivor count (dose: 400.0 mg/kg/injection, schedule: Q01DX009 (ip), vehicle: saline with Tween-80): 0 of 6 | survivor count [6]: 0 of 3

c1cc[c]([Pb]([c]2ccccc2)([c]2ccccc2)[n]2cccc2)cc1
survivor count [5]: 5 of 6 | survivor count [1]: 0 of 6 | survivor count [2]: 0 of 6

CCCCCCCCCC(=O)OCCN1CCN(CCCN2c3ccccc3Sc3ccc(C(F)(F)F)cc32)CC1
survivor count (dose: 3.12 mg/kg/injection, schedule: Q01DX009 (ip), vehicle: alcohol): 6 of 6 | survivor count (dose: 6.25 mg/kg/injection, schedule: Q01DX009 (ip), vehicle: alcohol): 6 of 6 | survivor count (dose: 12.5 mg/kg/injection, schedule: Q01DX009 (ip), vehicle: alcohol): 6 of 6 | survivor count (dose: 25.0 mg/kg/injection, schedule: Q01DX009 (ip), vehicle: alcohol): 5 of 6 | survivor count (dose: 50.0 mg/kg/injection, schedule: Q04DX003 (ip), vehicle: saline with Tween-80): 0 of 4 | survivor count [5]: 0 of 4 | survivor count [1]: 0 of 4 | survivor count [2]: 0 of 4

Cc1cccc(C(=O)C=C(C(F)(F)F)C(F)(F)F)c1
survivor count [5]: 6 of 6 | survivor count [1]: 5 of 6 | survivor count [2]: 0 of 6

C=C(Br)CNC(=O)C(C)C
survivor count [5]: 0 of 6 | survivor count [1]: 0 of 6 | survivor count [2]: 0 of 6

CSc1nc(N)cc(NC(=O)CCl)n1
survivor count [4]: 4 of 6 | survivor count [12]: 1 of 6

C[S+](C)Cc1ccccc1
survivor count [14]: 3 of 6 | survivor count [10]: 0 of 6 | survivor count [15]: 0 of 6

CC(Br)C1(c2cccc([N+](=O)[O-])c2)OCCO1 (stereo not drawn)
survivor count (dose: 100.0 mg/kg/injection, schedule: Q01DX009 (ip), vehicle: other): 1 of 6 | survivor count [14]: 0 of 6 | survivor count [15]: 0 of 6

CC1CCN(C(=S)[S-])CC1.CC1CCN(C(=S)[S-])CC1.[Zn]
survivor count [10]: 6 of 6 | survivor count [8]: 3 of 6

O=C(O)c1ccc(N=Cc2ccc([N+](=O)[O-])s2)cc1
survivor count [11]: 6 of 6 | survivor count [12]: 2 of 6

From PubChem BioAssay AID248 (DTP/NCI, 2004)
